{
  "sequences": {"note": "Amino acid sequences for entries named in this document (tags omitted). A change or cut given only in a name is not applied to a line headed by its entry.", "UniProt O75140": "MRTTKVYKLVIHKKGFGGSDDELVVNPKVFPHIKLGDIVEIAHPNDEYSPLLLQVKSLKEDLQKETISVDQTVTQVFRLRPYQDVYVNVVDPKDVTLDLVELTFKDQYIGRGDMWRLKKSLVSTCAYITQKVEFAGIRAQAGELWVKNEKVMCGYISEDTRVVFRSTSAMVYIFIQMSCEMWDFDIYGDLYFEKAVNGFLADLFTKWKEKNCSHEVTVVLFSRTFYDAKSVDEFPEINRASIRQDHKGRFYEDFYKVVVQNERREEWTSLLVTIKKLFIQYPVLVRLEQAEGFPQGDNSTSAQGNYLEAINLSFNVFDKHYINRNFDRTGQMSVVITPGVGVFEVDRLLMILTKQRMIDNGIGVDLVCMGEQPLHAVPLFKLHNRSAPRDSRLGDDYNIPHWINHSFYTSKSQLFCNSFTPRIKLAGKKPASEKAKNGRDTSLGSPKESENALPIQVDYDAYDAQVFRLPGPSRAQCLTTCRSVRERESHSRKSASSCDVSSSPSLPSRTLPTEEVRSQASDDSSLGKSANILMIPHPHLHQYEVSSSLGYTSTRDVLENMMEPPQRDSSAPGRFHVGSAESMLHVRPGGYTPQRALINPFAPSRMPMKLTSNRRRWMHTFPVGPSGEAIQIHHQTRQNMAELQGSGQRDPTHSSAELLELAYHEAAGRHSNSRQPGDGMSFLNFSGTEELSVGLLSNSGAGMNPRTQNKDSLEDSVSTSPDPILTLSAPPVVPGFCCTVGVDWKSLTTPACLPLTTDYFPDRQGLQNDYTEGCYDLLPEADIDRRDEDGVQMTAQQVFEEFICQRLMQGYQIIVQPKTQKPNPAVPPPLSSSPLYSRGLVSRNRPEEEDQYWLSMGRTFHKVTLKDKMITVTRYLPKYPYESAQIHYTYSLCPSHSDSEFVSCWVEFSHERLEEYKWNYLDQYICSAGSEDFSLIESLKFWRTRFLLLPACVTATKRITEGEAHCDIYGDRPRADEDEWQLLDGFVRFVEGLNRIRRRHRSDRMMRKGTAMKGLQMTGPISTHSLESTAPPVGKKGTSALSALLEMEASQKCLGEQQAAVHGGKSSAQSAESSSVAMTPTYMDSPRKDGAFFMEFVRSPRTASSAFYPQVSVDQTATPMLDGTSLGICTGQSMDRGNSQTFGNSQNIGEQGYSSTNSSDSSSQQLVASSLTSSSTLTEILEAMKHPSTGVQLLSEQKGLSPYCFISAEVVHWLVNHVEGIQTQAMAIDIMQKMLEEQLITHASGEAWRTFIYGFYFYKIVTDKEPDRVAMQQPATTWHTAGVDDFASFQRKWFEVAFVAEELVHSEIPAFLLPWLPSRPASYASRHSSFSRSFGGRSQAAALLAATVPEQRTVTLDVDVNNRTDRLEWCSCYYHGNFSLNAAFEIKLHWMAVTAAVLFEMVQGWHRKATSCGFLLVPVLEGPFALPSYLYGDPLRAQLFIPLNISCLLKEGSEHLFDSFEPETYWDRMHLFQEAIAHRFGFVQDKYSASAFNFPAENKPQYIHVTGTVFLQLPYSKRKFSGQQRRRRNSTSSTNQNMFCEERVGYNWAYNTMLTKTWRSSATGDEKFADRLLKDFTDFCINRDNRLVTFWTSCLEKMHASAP", "UniProt Q9NXC5": "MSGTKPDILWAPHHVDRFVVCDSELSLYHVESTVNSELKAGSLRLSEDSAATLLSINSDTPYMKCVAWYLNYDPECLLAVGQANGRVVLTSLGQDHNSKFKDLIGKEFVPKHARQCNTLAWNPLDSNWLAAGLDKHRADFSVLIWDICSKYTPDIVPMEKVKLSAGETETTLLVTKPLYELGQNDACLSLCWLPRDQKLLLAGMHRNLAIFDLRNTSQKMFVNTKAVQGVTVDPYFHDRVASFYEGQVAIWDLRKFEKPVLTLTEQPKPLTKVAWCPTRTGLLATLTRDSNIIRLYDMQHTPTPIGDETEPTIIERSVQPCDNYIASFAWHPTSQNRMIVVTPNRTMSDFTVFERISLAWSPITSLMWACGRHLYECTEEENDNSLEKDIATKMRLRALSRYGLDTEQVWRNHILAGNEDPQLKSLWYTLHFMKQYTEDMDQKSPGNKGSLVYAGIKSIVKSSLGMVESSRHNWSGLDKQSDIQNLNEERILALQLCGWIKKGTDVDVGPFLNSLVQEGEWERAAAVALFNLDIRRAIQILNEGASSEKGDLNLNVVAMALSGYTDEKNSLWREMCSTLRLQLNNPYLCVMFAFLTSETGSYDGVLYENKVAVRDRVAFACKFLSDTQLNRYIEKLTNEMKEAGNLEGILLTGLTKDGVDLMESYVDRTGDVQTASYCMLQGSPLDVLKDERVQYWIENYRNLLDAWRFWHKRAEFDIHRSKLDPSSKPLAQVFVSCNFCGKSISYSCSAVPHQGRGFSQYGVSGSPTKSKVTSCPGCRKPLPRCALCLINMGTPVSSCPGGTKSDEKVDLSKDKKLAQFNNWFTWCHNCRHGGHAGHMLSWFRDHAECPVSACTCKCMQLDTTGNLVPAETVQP", "UniProt Q5VZM2": "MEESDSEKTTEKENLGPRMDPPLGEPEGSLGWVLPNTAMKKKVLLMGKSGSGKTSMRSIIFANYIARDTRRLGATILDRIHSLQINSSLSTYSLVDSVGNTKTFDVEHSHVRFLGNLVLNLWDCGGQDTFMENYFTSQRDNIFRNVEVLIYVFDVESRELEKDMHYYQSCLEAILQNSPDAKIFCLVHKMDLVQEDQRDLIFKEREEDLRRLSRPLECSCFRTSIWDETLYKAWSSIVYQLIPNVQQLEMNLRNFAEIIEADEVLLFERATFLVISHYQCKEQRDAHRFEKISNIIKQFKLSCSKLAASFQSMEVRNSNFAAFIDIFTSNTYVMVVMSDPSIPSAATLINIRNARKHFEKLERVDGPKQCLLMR"},
  "source": "paper PMC4377584",
  "key": {"Flag-tagged Sestrin2": {"target": "T1, Flag-tagged Sestrin2 (UniProt P58004)", "T1 sequence": "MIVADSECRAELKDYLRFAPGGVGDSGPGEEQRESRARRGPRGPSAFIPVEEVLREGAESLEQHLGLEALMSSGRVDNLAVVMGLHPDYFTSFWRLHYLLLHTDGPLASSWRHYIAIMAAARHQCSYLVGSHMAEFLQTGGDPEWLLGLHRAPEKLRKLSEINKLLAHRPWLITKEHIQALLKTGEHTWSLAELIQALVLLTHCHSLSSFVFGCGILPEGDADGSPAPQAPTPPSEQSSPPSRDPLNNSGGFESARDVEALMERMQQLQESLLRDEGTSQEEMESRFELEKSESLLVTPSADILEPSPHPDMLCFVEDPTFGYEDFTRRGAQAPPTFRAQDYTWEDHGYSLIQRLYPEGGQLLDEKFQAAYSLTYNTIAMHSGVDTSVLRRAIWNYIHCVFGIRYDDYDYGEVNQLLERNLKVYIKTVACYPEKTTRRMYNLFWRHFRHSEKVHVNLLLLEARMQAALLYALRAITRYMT", "experiment": "co-IP; HEK293 cells co-transfected with Sestrin2 (or Sestrin1, or truncated Sestrin2) and all GATOR2 components, in Fig. S3D also the GATOR1 components; Sestrin2 IPed (Flag antibody in Fig. 1C); lysis buffer with 0.3% CHAPS; immunoblot"}, "Flag-tagged WDR24": {"target": "T2, Flag-tagged WDR24 (UniProt Q96S15)", "T2 sequence": "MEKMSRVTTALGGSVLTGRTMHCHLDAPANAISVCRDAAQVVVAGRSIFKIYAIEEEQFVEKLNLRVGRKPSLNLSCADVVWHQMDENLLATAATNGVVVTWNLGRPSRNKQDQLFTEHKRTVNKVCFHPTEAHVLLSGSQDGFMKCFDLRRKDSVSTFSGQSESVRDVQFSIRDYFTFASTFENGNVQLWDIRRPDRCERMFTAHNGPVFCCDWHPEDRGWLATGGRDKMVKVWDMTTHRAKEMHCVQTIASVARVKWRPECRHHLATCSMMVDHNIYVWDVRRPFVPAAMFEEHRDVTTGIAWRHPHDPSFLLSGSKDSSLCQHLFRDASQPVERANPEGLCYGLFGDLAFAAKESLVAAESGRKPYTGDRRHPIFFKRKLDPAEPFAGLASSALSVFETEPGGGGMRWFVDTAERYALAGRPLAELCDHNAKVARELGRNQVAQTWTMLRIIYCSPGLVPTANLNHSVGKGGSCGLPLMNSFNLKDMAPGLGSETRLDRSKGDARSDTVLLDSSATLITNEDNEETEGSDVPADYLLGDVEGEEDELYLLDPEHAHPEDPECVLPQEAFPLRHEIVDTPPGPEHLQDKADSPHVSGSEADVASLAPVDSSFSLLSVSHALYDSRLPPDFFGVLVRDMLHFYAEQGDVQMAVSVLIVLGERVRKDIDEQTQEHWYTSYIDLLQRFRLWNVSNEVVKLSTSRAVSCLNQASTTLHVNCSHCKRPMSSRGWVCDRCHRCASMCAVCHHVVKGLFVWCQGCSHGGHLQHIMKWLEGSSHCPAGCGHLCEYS", "experiment": "co-IP; HEK293 cells co-transfected with HA-tagged Sestrin2 and GATOR1 and GATOR2 components; Flag-NPRL2 (Fig. 2A) or Flag-WDR24 (Fig. 2B, S4) IPed with Flag antibody; immunoblot"}, "Flag-tagged NPRL2": {"target": "T3, Flag-tagged NPRL2 (UniProt Q8WTW4)", "T3 sequence": "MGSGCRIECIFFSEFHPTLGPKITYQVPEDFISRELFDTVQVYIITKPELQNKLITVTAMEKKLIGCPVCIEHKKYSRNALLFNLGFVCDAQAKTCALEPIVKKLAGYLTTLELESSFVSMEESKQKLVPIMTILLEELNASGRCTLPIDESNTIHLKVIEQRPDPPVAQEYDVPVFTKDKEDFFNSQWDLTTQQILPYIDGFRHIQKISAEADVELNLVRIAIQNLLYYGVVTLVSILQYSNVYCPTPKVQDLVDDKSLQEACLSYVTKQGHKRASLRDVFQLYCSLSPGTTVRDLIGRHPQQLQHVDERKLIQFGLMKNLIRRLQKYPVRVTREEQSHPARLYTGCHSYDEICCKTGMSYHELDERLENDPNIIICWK", "experiment": "co-IP; HEK293 cells co-transfected with HA-tagged Sestrin2 and GATOR1 and GATOR2 components; Flag-NPRL2 (Fig. 2A) or Flag-WDR24 (Fig. 2B, S4) IPed with Flag antibody; immunoblot"}, "Sestrin1": {"target": "T4, Sestrin1 (UniProt Q9Y6P5)", "T4 sequence": "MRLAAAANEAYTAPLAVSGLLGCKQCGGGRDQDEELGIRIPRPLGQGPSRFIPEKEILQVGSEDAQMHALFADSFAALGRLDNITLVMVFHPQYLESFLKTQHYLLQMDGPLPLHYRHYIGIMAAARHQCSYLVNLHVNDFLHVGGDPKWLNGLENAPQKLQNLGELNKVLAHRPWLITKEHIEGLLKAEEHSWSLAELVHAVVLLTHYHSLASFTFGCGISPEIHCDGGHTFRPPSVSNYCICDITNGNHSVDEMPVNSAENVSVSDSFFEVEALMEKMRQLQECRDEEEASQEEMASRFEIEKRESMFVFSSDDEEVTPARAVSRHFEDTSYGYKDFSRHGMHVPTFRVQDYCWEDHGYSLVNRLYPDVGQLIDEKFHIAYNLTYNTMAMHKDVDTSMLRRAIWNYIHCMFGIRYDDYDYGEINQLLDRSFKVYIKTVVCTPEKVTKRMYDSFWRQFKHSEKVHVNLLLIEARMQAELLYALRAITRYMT", "experiment": "co-IP; HEK293 cells co-transfected with Sestrin2 (or Sestrin1, or truncated Sestrin2) and all GATOR2 components, in Fig. S3D also the GATOR1 components; Sestrin2 IPed (Flag antibody in Fig. 1C); lysis buffer with 0.3% CHAPS; immunoblot"}, "[1]": {"target": "T5, NPRL2 (endogenous, HEK293) (human (endogenous in HEK293)) (UniProt Q8WTW4)", "T5 sequence": "T3 sequence", "experiment": "co-IP; endogenous proteins; HEK293 cells transduced with GFP or Sestrin2-overexpressing lentiviruses for 48 h; IP with RagB antibody (Fig. 3C) or NPRL2 antibody (Fig. 3D); immunoblot"}},
  "note": "Results are given in words; binding and its absence hold for the method and conditions named. In cells and extracts the contact can be indirect. Some entries that bind do so weakly or less than the wild type. For some assays here: Where a sequence is shown, tags or fusion partners need not be part of it.",
  "data": [
    {"substance": "DEPDC5 (transfected) (from UniProt O75140 1-1603)", "values": [
      {"measurement": "binding", "setting": "Flag-tagged Sestrin2", "result": "no binding"}
    ]},
    {"substance": "GATOR1 complex (co-transfected components) (from UniProt O75140 1-1603; Q8WTW4 1-380; Q12980 1-569)", "values": [
      {"measurement": "binding", "setting": "Flag-tagged WDR24", "result": "binds"}
    ]},
    {"substance": "GATOR2 complex (co-transfected components) (from UniProt Q9NXC5 1-875; Q96S15 1-790; Q6PJI9 1-974; Q96EE3 1-360; P55735 1-322)", "values": [
      {"measurement": "binding", "setting": "Flag-tagged NPRL2", "result": "binds"},
      {"measurement": "binding", "setting": "Sestrin1", "result": "binds"}
    ]},
    {"substance": "RagB (endogenous, HEK293) (from UniProt Q5VZM2 1-374)", "values": [
      {"measurement": "binding", "setting": "[1]", "result": "binds"}
    ]}
  ]
}
